No constants are given. Whether binding was seen depends on the method and setting. Binding seen in cells or lysates may run through a third protein. Binding calls can cover weak binding; strength is not graded here. Sequences can lack the tags named with a protein.

Protein sequences, listed by entry. Tags and fused reporters are not part of them. Lines headed by an entry give the natural chain unless they say otherwise; changes in a name come on top.
UniProt P39938: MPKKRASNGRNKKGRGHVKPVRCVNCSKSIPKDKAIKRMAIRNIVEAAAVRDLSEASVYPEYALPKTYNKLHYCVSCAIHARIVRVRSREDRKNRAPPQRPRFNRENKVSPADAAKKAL

For one test, the target named is T1, GST-Pse1 (S. cerevisiae) (UniProt P32337).
T1 sequence: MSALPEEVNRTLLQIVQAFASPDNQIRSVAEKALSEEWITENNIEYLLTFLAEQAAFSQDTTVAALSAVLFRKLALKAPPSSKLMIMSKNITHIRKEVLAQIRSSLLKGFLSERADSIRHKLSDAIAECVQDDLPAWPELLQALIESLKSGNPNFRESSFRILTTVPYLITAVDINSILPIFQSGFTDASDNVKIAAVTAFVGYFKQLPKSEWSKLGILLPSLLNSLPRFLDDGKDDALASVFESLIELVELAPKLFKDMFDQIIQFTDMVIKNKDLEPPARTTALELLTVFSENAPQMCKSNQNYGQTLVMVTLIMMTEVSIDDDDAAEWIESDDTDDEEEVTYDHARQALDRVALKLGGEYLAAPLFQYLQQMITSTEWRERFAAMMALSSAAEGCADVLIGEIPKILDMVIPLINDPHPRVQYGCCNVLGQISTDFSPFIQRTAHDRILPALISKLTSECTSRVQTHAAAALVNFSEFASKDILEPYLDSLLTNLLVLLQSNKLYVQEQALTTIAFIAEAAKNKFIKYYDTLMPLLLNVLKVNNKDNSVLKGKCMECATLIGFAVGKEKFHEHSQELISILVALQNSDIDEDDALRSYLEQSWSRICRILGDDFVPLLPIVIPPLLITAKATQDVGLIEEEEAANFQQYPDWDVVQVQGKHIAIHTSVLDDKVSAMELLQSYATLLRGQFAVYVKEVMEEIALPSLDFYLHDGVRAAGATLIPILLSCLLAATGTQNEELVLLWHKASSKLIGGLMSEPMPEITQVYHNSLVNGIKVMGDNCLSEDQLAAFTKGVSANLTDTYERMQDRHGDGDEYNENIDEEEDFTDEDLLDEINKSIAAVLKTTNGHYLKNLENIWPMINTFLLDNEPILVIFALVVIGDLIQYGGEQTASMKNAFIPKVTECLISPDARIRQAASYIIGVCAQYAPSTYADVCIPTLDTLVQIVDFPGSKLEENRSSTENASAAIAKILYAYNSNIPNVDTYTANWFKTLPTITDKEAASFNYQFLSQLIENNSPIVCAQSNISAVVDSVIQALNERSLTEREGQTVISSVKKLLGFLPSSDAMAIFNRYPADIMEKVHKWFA
The test can be described thus: pull-down; dissociation kinetics: pre-immobilised GST-importin:eS26^FLAG complexes with buffer, 1.5 µM or 375 nM RanGTP or Tsr2; samples withdrawn at 1, 2, 4 and 8 min; only the target purified.

For test [1], the target named is T2, GST-Kap104 (S. cerevisiae) (UniProt P38217).
T2 sequence: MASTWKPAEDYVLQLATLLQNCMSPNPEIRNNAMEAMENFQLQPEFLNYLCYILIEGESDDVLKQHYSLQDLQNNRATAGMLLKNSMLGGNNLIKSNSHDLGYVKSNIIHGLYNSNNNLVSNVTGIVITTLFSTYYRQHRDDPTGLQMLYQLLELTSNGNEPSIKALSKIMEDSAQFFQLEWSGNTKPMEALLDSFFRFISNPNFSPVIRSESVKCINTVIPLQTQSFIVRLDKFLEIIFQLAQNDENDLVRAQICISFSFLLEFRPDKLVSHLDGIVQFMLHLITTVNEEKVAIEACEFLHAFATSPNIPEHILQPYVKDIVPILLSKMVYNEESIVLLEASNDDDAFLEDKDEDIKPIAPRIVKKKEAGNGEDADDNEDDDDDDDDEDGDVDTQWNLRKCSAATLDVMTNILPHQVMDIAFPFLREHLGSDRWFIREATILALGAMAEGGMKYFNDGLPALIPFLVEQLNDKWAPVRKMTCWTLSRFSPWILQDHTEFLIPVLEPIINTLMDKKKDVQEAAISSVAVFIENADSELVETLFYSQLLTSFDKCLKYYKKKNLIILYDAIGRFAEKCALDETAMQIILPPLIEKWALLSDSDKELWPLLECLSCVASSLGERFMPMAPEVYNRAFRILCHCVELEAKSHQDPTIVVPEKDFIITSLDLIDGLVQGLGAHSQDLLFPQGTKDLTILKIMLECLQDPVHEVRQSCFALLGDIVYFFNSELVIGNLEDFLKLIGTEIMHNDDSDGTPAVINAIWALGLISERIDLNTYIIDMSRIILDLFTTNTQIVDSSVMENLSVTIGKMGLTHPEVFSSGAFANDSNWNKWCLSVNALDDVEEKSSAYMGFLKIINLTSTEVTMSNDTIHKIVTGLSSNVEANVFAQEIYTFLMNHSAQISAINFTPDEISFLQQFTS
The test can be described thus: pull-down; dissociation assay, 1 hr: GST-importin:r-protein^FLAG complexes pre-formed on Glutathione Sepharose (r-protein from E. coli lysate) incubated with buffer alone, 1.5 µM RanGTP, 1.5 µM Tsr2 or His6-Tsr2, or 3 nM 3'-end of 18S rRNA for 1 hr at 4°C; only the target purified.

With eS26^FLAG (from UniProt P39938), the binding result (in the test with GST-Pse1 (S. cerevisiae); in test [1]) was “binds” in each case.

The values above are taken from PMC4161973.
